PubChem BioAssay AID1671195 | Yale University, 2021
This is a random part of about 22,000 reagents. About 1,510 of all reagents (6.9%) count as active. 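Active includes knockdowns raising or lowering LDL uptake; positive z-scores mean more uptake, negative mean less.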

Test: 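Knockdowns that increase or decrease uptake of fluorescent LDL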 (primary screen)
Cells: human Huh7 hepatoma cells
Knock-down reagent: siRNA pool against human genes, 18 nM
Duration: about 2 to 2.5 days of knockdown, then 8 h LDL uptake
Challenge: DiI-labelled LDL at 30 µg/ml for 8 h, in lipoprotein-deficient serum medium
Detection: 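Per-cell DiI-LDL intensity by automated imaging; well means scaled to the plate median and given as a robust z-score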
Direction: robust z-score: higher = more LDL uptake after knockdown
Call rule: 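a gene counts as active if at least two replicate z-scores exceed ±2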

ERICH6B (GeneID 220081) | robust z-score, replicate 1 = 0.285; robust z-score, replicate 2 = 0.343; robust z-score, replicate 3 = 0.243; Outcome = inactive
GOSR1 (GeneID 9527) | robust z-score, replicate 1 = 2.93; robust z-score, replicate 2 = 2.8; robust z-score, replicate 3 = 2.72; Outcome = active
PRXL2B (GeneID 127281) | robust z-score, replicate 1 = 1.16; robust z-score, replicate 2 = 0.121; robust z-score, replicate 3 = 0.853; Outcome = inactive
MAIP1 (GeneID 79568) | robust z-score, replicate 1 = 0.353; robust z-score, replicate 2 = 0.129; robust z-score, replicate 3 = 0.0946; Outcome = inactive
GABRA6 (GeneID 2559) | robust z-score, replicate 1 = -0.889; robust z-score, replicate 2 = -1.23; robust z-score, replicate 3 = -0.5; Outcome = inactive
SCRT1 (GeneID 83482) | robust z-score, replicate 1 = -0.768; robust z-score, replicate 2 = -0.789; robust z-score, replicate 3 = 1.18; Outcome = inactive
PTPA (GeneID 5524) | robust z-score, replicate 1 = 0.0734; robust z-score, replicate 2 = -0.0565; robust z-score, replicate 3 = -0.525; Outcome = inactive
ZSCAN25 (GeneID 221785) | robust z-score, replicate 1 = 1.73; robust z-score, replicate 2 = 2.04; robust z-score, replicate 3 = 1.99; Outcome = active
GPR157 (GeneID 80045) | robust z-score, replicate 1 = -0.34; robust z-score, replicate 2 = -0.272; robust z-score, replicate 3 = -0.782; Outcome = inactive
EGFLAM (GeneID 133584) | robust z-score, replicate 1 = -0.278; robust z-score, replicate 2 = -0.976; robust z-score, replicate 3 = -2.28; Outcome = inactive
LOC441529 (retired record) (GeneID 441529) | robust z-score, replicate 1 = 0.212; robust z-score, replicate 2 = -1.09; robust z-score, replicate 3 = -1.01; Outcome = inactive
ZMAT3 (GeneID 64393) | robust z-score, replicate 1 = -0.484; robust z-score, replicate 2 = -0.475; robust z-score, replicate 3 = -0.64; Outcome = inactive
PKIG (GeneID 11142) | robust z-score, replicate 1 = 1.25; robust z-score, replicate 2 = 0.116; robust z-score, replicate 3 = 0.22; Outcome = inactive
RAD54L (GeneID 8438) | robust z-score, replicate 1 = -1.62; robust z-score, replicate 2 = -1.93; robust z-score, replicate 3 = -2.11; Outcome = active
PRKCZ (GeneID 5590) | robust z-score, replicate 1 = -0.936; robust z-score, replicate 2 = -0.345; robust z-score, replicate 3 = -0.428; Outcome = inactive
STRIP2 (GeneID 57464) | robust z-score, replicate 1 = -0.952; robust z-score, replicate 2 = -1.07; robust z-score, replicate 3 = -1.08; Outcome = inactive

Active calls, among the entries above:
GOSR1 (GeneID 9527) | robust z-score, replicate 1 = 2.93; robust z-score, replicate 2 = 2.8; robust z-score, replicate 3 = 2.72; Outcome = active
ZSCAN25 (GeneID 221785) | robust z-score, replicate 1 = 1.73; robust z-score, replicate 2 = 2.04; robust z-score, replicate 3 = 1.99; Outcome = active
RAD54L (GeneID 8438) | robust z-score, replicate 1 = -1.62; robust z-score, replicate 2 = -1.93; robust z-score, replicate 3 = -2.11; Outcome = active
